These are yes or no findings as the source states them, for the method shown. Some binding calls cover weakened binding; strength is not graded here.
T1: mouse VEGF-A (mouse) (UniProt Q00731)
T1 sequence (looked up): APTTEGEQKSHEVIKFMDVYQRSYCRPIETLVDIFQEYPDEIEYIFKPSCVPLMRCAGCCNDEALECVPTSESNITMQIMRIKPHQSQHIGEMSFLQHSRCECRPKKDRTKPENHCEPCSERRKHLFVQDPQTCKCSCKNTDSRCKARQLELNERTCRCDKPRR

Protein sequences, listed by entry. Tags and fused reporters are not part of them. Lines headed by an entry give the natural chain unless they say otherwise; changes in a name come on top. Chains listed by the source or under a name are the forms on record and can include a tag or linker.
human VEGF-A (P15692, form named): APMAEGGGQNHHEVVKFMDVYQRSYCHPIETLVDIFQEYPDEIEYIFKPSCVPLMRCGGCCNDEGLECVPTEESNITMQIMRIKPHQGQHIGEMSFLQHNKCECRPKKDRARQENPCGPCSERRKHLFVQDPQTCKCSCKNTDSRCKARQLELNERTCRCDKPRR


How the values were obtained:
[1] = molecular target: human VEGF (ACRO, His tag) (human) (UniProt P15692); experiment: ELISA, human VEGF (His tag) coated
mouse VEGF-A (mouse) = molecular target: T1, mouse VEGF-A (mouse); experiment: ELISA, VHH-Fc expression supernatant
human VEGF-A (human) = human VEGF-A (human) (UniProt P15692); experiment: ELISA, VHH-Fc expression supernatant

binding [1] | binding (mouse VEGF-A (mouse)) | binding (human VEGF-A (human)) | Binder
binds |  |  | Strain #48 VHH (VHH, not shown: a dimerising Fc or GST) VHH: EVQLLESGGGLVQPGGSLRLSCAASGFTFSTSTMSWYRQAPGKERELVSFITSAGATTYYADSVKGRFTMSRDNSKNTVYLQMNSLRAEDTAVYYCRALVTLWNVYWGQGTLVTVSS
 | binds | binds | Strain #6 VHH (Fc fusion, not shown: a dimerising Fc or GST) QVQLQESGGGLVQPGGSLRLSCAASGFTFSTSTMSWYRQAPGKERELVAFITSAGATTNYADSVKDRFTMSRDNDKNTVYLQMNVLKPEDTAMYYCRALVTLWNVYWGQGTQVTVSS

— patent US20260055173A1
